PubChem BioAssay AID743454, Peter MacCallum Cancer Centre, 2014

- Test: 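Knock-downs lowering viability or raising caspase 3/7 activity in vorinostat-treated resistant cells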 (primary screen)
- Cell system: human HCT116-VR colon cancer cells, selected for vorinostat resistance
- Knock-down reagent: siRNA pool against human genes, 40 nM siRNA pool
- Time to read-out: vorinostat for 24 h, read-out about 72 h after transfection
- Challenge: vorinostat at 2.5 µM final
- Measurement: 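Cell viability by CellTiter-Fluor and caspase 3/7 activity by luminescence, each scaled to mock wells per plate, duplicates averaged, then robust z-scored over all plates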
- Scale: viability robust z-score: higher = more viable cells than screen typical; caspase robust z-score: higher = more caspase 3/7 activity than screen typical
- Hit rule: 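a knock-down is a hit when classed RV1 or RV2 for lowered viability, or CA1 or CA2 for caspase activation; those lethal without drug were dropped; hits were retested singly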
This is one part, drawn at random, of about 18,000 reagents tested. Of all reagents, 450 (2.5%) got an active call. 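Single biological run; no consistent viability z cut-off exists, so the class columns, not z-scores, define the calls.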

| gene symbol | viability hit class | caspase hit class | viability robust z-score | caspase robust z-score | outcome |
| --- | --- | --- | --- | --- | --- |
| PAEP | no change | no change | -0.21 | -1.19 | inactive |
| FRMPD1 | no change | no change | 1.61 | -0.38 | inactive |
| SMCR8 | no change | no change | -2.25 | 4.88 | inactive |
| TBC1D13 | no change | no change | 2.44 | -0.68 | inactive |
| SLC25A35 | no change | no change | 0.64 | 2.37 | inactive |
| RAB1A | no change | no change | -0.7 | 0.69 | inactive |
| NAA20 | no change | no change | 1.76 | 0.35 | inactive |
| C1orf74 | no change | no change | -0.38 | 1.88 | inactive |
| BLOC1S1 | no change | no change | -0.2 | 1.07 | inactive |
| APOC1 | no change | no change | 1.2 | -0.68 | inactive |
| SUPT6H | no change | no change | -2.37 | -1.4 | inactive |
| ERMAP | no change | no change | -0.7 | -0.42 | inactive |
| ACTC1 | no change | no change | -0.12 | -0.74 | inactive |
| HLCS | no change | no change | 0.2 | 3.01 | inactive |
| STRADB | no change | no change | 0.07 | 0.28 | inactive |
| IMPA2 | no change | no change | 0.75 | 4.38 | inactive |
| ISOC2 | no change | no change | 0.18 | 4.64 | inactive |
| EPYC | no change | no change | 0.54 | -0.49 | inactive |
| HMGCL | no change | no change | -1.4 | -0.54 | inactive |
| PPM1E | no change | no change | -2.04 | 0.84 | inactive |
| PWP1 | no change | no change | 0.03 | 0.1 | inactive |
| ZNF71 | no change | no change | -0.56 | 3.82 | inactive |
| BPIFB1 | no change | no change | -1.23 | -0.04 | inactive |
| KIR3DP1 | no change | no change | -0.74 | -0.37 | inactive |
| KRTAP4-7 | no change | no change | 0.11 | -0.86 | inactive |
| LRWD1 | no change | no change | 0.09 | -0.3 | inactive |
| DYNLL1 | no change | no change | -0.16 | -0.39 | inactive |

Ordered by “viability robust z-score” (high to low): 4 of the entries above.
| gene symbol | viability hit class | caspase hit class | viability robust z-score | caspase robust z-score | outcome |
| --- | --- | --- | --- | --- | --- |
| APOC1 | no change | no change | 1.2 | -0.68 | inactive |
| ACTC1 | no change | no change | -0.12 | -0.74 | inactive |
| ERMAP | no change | no change | -0.7 | -0.42 | inactive |
| SUPT6H | no change | no change | -2.37 | -1.4 | inactive |

The listing continues:
| gene symbol | viability hit class | caspase hit class | viability robust z-score | caspase robust z-score | outcome |
| --- | --- | --- | --- | --- | --- |
| SDC1 | no change | no change | -3.56 | 1.77 | inactive |
| APTX | no change | no change | 0.34 | 0.72 | inactive |
| DNTT | no change | no change | -0.58 | -0.04 | inactive |
| CLEC14A | no change | no change | -0.19 | 0.4 | inactive |
| EPHX3 | no change | no change | -0.56 | 1.46 | inactive |
| BAD | no change | no change | 0.16 | 0.64 | inactive |
| IPO8 | no change | no change | 0.48 | -0.28 | inactive |
| SLC36A2 | no change | no change | 0.04 | 0.92 | inactive |
| B4GALNT1 | no change | no change | -0.26 | -1.12 | inactive |
| CCL16 | no change | no change | -0.7 | -0.68 | inactive |
| GZMB | no change | no change | -1.58 | 3.05 | inactive |
| GSX2 | no change | CA1 (caspase activation) | 0.06 | 5.61 | active |
| NUDT3 | no change | no change | 0.68 | -0.18 | inactive |
| RNFT2 | no change | no change | 0.92 | 0.35 | inactive |
| FAM168B | no change | no change | 1.15 | 1.62 | inactive |
| ORAI1 | no change | no change | 0.09 | 0.28 | inactive |
| PABIR1 | no change | no change | 1.5 | -0.72 | inactive |
| VPS37B | no change | no change | 1.81 | 2.7 | inactive |
| RBM7 | no change | no change | -1.32 | 0.78 | inactive |
| C6orf89 | no change | no change | 1 | -0.66 | inactive |
| ATP2C1 | no change | no change | -0.4 | 2.43 | inactive |
| LINGO4 | no change | no change | -0.18 | 4.32 | inactive |
| ADAM19 | no change | no change | -0.41 | -0.74 | inactive |
| PYCR2 | no change | no change | -2.01 | 0.34 | inactive |
| THAP5 | no change | no change | 0.72 | 0 | inactive |
| HS2ST1 | no change | no change | -0.15 | 0.38 | inactive |
| OSBP | no change | no change | -0.41 | -0.29 | inactive |
| SHANK1 | no change | no change | -0.29 | -0.78 | inactive |
| PIAS3 | no change | no change | -0.78 | -0.22 | inactive |
| PLAUR | no change | no change | 0.52 | 0.01 | inactive |
| ZNF622 | no change | no change | 0.62 | -0.76 | inactive |
| DEFB116 | no change | no change | -0.34 | 0.22 | inactive |
| AP3B2 | no change | no change | -0.38 | 1.39 | inactive |
| SACK1H | no change | no change | -1.06 | 2.24 | inactive |
| DDC | no change | no change | -0.32 | 1.65 | inactive |
| CCNI2 | no change | no change | 0.31 | 1.73 | inactive |
| NKD2 | no change | no change | 0.4 | -0.24 | inactive |
| PROP1 | no change | no change | 0.09 | 1.92 | inactive |
| TNNI3K | no change | no change | 0.29 | -0.58 | inactive |
| IRF2BPL | no change | no change | 0.24 | 1.75 | inactive |
| MARVELD2 | no change | no change | 0.15 | 0.88 | inactive |
| ABCB1 | no change | no change | -0.12 | 2.21 | inactive |
| BTN3A3 | no change | no change | -1.88 | 1.41 | inactive |
| PAXX | no change | no change | 0.26 | 2.47 | inactive |
| FURIN | no change | no change | 0.2 | -0.36 | inactive |
| SERPINB6 | no change | no change | 0.08 | -0.64 | inactive |
